Source: PubChem BioAssay (NCATS)
The inconclusive results got no clear call from the source; some entries with a clear call stand among them for comparison. Potencies beside an inconclusive call are fits to weak or partial responses and may not hold up. Activity calls are given as the source filed them. Calls come from the whole dose curve; as a rule, active = well fitted cell-killing curve with a large enough effect; inconclusive = small, poorly fitted or top-dose-only effect, or effect the other way; inactive = no such curve, though single readings can be large or run the other way.

Experiment: Quantitative High-Throughput drug screen in 47 multiple myeloma cell lines against the NCATS MIPE library collection: KMS12PE_JCRB cell viability assay (AID 1918972); note: nearly all actives have a fitted effect of over 30% in size
Settings: KMS12PE myeloma viability, CellTiter-Glo ATP, 48 h; viability: at 45.8 µM (top of the series)
Text: PI: Beverly A. Mock Ph.D.
Laboratory of Cancer Biology and Genetics,
Center for Cancer Research, National Cancer Institute,
National Institute of Health, Bethesda, Maryland
Drug resistance and disease progression are common in multiple myeloma (MM) patients, underscoring the need for new therapeutic combinations. […] We hypothesized that effective combinations would reduce MYC expression and enhance p16 activity. […] These preclinical data identify potentially useful drug combinations for evaluation in drug-resistant MM and reveal potential mechanisms of combined drug sensitivity.
Described herein is the primary MIPE qHTS used to cherrypick compounds. Validated compounds were then further tested for potential synergistic activiy.
[1] Peat TJ, Gaikwad SM, Dubois W, Gyabaah-Kessie N, Zhang S, Gorjifard S, Phyo Z, Andres M, Hughitt VK, Simpson RM, Miller MA, Girvin AT, Taylor A, Williams D, D'Antonio N, Zhang Y, Rajagopalan A, Flietner E, Wilson K, Zhang X, Shinn P, Klumpp-Thomas C, McKnight C, Itkin Z, Chen L, Kazandijian D, Zhang J, Michalowski AM, Simmons JK, Keats J, Thomas CJ, Mock BA. Drug combinations identified by high-throughput screening promote cell cycle transition and upregulate Smad pathways in myeloma. Cancer Lett. 2023 Aug 1;568:216284. doi: 10.1016/j.canlet.2023.216284. Epub 2023 Jun 24. PMID: 37356470; PMCID: PMC10408729.
SEQUENCE No. (e.g., 1, 2, 3, etc.); […] (e.g., Cells, Incubation, Reagent, etc.); VALUE and DESCRIPTION.
1; Cells; 5 uL; white, solid bottom 1536-well Greiner assay plate.
2; Compounds; 23 nL; Kalypsis pin tool (Wako USA) equipped with a 1536-well pin head to transfer to the assay plates.
3; Incubation; 48 hours; 37C incubation.
4; Reagent;5uL; CellTiter Glo (Promega).
5; Detector; 425V; Luminescence; Viewlux PerkinElmer.
NOTES (numbers refer to Sequence numbers above)
1. The cell-based screening methods employed in this study were like those previously published. Briefly, the corresponding myeloma cell lines were screened in 1,536-well plates with 500 cells, 5-uL per well for inhibition of cell viability (assessed by measuring ATP levels with CellTiterGlo).
2. NCATS MIPE 4.0 library of approved and investigational drugs were added using the Kalypsis pin tool. Wells treated with DMSO only for 100% viability and media only wells for 0% viability were used as controls.
3. The assay plates were covered and incubated for 48 hours in a 37C, 5% CO2 incubator with controlled humidity.
4. After 48 hours, CellTilter-GloTM luminescent substrate mix (Promega) reagent was added to the assay plate and plates we incubated for 5 min at room temperature.
5. Signal was measured as median relative luminescence units on a ViewLux (PerkinElmer) multiplate reader.
[1] Heske CM, Davis MI, Baumgart JT, Wilson K, Gormally MV, Chen L, Zhang X, Ceribelli M, Duveau DY, Guha R, Ferrer M, Arnaldez FI, Ji J, Tran HL, Zhang Y, Mendoza A, Helman LJ, Thomas CJ. Matrix Screen Identifies Synergistic Combination of PARP Inhibitors and Nicotinamide Phosphoribosyltransferase (NAMPT) Inhibitors in Ewing Sarcoma. Clin Cancer Res. 2017 Dec 1;23(23):7301-7311. doi: 10.1158/1078-0432.CCR-17-1121. Epub 2017 Sep 12. PMID: 28899971; PMCID: PMC6636827.
Potency is the fitted concentration of half-maximal effect.

SMILES	Potency	viability
O=P1(NCCCl)OCCCN1CCCl (stereo not given)	inconclusive: 13200 nM [cytotoxic, partial curve]	
C[C@@H]1[C@@H](CC(C[C@H]2O[C@@H]3O[C@]4(C)CC[C@@H]5[C@H](C)CC[C@@H]([C@H]2C)[C@@]35OO4)C[S+](=O)([O-])c2ccc(COC(=O)N(C)C)cc2)O[C@@H]2O[C@]3(C)CC[C@H]4[C@H](C)CC[C@@H]1[C@@]24OO3 (stereo not given in full)	active: 83.3 nM	
CC(NC(C)(C)C)C(=O)c1cccc(Cl)c1 (stereo not given)		inactive: 112%
CC(C)c1cccc(C(C)C)c1O	inconclusive: 1.3 nM [rising, full curve, poor fit]	
CC(=Cc1csc(C)n1)[C@@H]1C[C@H]2O[C@@H]2CCC[C@H](C)[C@@H](O)[C@@H](C)C(=O)C(C)(C)[C@@H](O)CC(=O)O1	inconclusive: 1.2 nM [cytotoxic, full curve]	
C[C@]12CC[C@@H]3[C@@H](CCC4=CC(=O)CC[C@@H]43)[C@@H]1CC[C@@H]2OC(=O)CCc1ccccc1	inconclusive: 1 nM	
CC(=O)OCC1=C(C(=O)O)N2C(=O)[C@@H](N)[C@@H]2SC1	inconclusive: 23500 nM [cytotoxic, partial curve, poor fit]	
Cc1c(N)nc([C@H](CC(N)=O)NC[C@@H](N)C(N)=O)nc1C(=O)N[C@H](C(=O)N[C@@H](C)[C@H](O)[C@@H](C)C(=O)N[C@@H](C(=O)NCCc1nc(-c2nc(C(=O)NCCC[S+](C)C)cs2)cs1)[C@@H](C)O)C(O[C@H]1O[C@H](CO)[C@H](O)[C@@H](O)[C@@H]1O[C@H]1O[C@H](CO)[C@@H](O)[C@H](OC(N)=O)[C@H]1O)c1cnc[nH]1 (stereo not given in full)	inconclusive: 418 nM [cytotoxic, full curve, poor fit]	
CC=C(C)C(=O)N[C@@H](c1ccccc1)[C@@H](O)C(=O)O[C@H]1C[C@@]2(O)[C@@H](OC(=O)c3ccccc3)[C@@H]3[C@]4(OC(C)=O)CO[C@@H]4C[C@H](O)[C@@]3(C)C(=O)[C@H](OC(C)=O)C(=C1C)C2(C)C	inconclusive: 1 nM [cytotoxic]	
C[C@]12CCC(=O)C(O)=C1CC[C@@H]1[C@H]3CCC(=O)[C@@]3(C)CC[C@@H]12		inactive: 102%
CN1CCN(c2ccc([N+](=O)[O-])c3no[n+]([O-])c23)CC1	active: 16600 nM	
CC(=O)Nc1ccc(OC[C@](C)(O)C(=O)Nc2ccc([N+](=O)[O-])c(C(F)(F)F)c2)cc1	inconclusive: 18.7 nM [rising, full curve, poor fit]	
CCC(=O)OC1CCC2C3CCC4=CC(=O)CC[C@@]4(C)C3CC[C@]12C (stereo not given in full)	inconclusive: 23500 nM [cytotoxic, partial curve, poor fit]	
CC(C)C[C@H](CN)CC(=O)O		inactive: 129%
C#CCN(C)[C@H](C)Cc1ccccc1		inactive: 102%
CCN1CCN(C(=O)Cc2ccc(Nc3ncc(F)c(Nc4ccc(C(=O)Nc5ccccc5Cl)cc4)n3)cc2)CC1	active: 1050 nM	
CNCC(O)c1ccc(O)cc1 (stereo not given)		inactive: 91%
CC[C@@]1(O)C(=O)OCc2c1cc1n(c2=O)Cc2cc3ccccc3nc2-1	active: 132 nM	
CCOC(=O)c1c(C(C#N)=CN)c2ccc(Cl)c(Cl)c2n1C		inactive: 86.8%
O=C1CCC[C@@H]2[C@H]3CCCN4CCC[C@@H](CN12)[C@@H]34	inconclusive: 2.6 nM [rising, full curve]	

Of the compounds above, two contain a COOH group.
SMILES	Potency	viability
CC(=O)OCC1=C(C(=O)O)N2C(=O)[C@@H](N)[C@@H]2SC1	inconclusive: 23500 nM [cytotoxic, partial curve, poor fit]	
CC(C)C[C@H](CN)CC(=O)O		inactive: 129%

More structures.

SMILES	Potency	viability
Cc1c(C(=O)c2cccc3ccccc23)c2cccc3c2n1[C@H](CN1CCOCC1)CO3	active: 7430 nM	
CC(C)CC(N(C)C)C1(c2ccc(Cl)cc2)CCC1 (stereo not given)		inactive: 105%
CCNC(=O)C[C@@H]1N=C(c2ccc(Cl)cc2)c2cc(OC)ccc2-n2c(C)nnc21	active: 166 nM	
O=C(Oc1ccc([N+](=O)[O-])cc1)N1CCC(C(O)(c2ccc3c(c2)OCO3)c2ccc3c(c2)OCO3)CC1	inconclusive: 1 nM	
c1cc2c(cc1[C@H]1OC[C@H]3[C@H]1CO[C@H]3c1ccc3c(c1)OCO3)OCO2	inconclusive: 418 nM [cytotoxic, full curve, poor fit]	
CCCN1CCO[C@@H]2c3cc(O)ccc3OC[C@@H]21		inactive: 115%
CO[C@H]1CCC(O[C@H]2C[C@H]([C@]3(C)CC[C@]4(C[C@H](O)[C@@H](C)[C@@H]([C@@H](C)C=C(C)C(=O)[C@H](C)C[C@H](C)C(=O)O)O4)O3)O[C@]3(O[C@@H]([C@H]4O[C@@](O)(CO)[C@H](C)C[C@H]4C)C[C@H]3C)[C@H]2C)O[C@H]1C (stereo not given in full)	inconclusive: 372 nM [cytotoxic, full curve, poor fit]	
C[C@](O)(CS(=O)(=O)c1ccc(F)cc1)C(=O)Nc1ccc(C#N)c(C(F)(F)F)c1	inconclusive: 20900 nM [cytotoxic, partial curve]	
CCN(CC)C(=O)c1ccc(C2=CC3(CCNCC3)Oc3cccc(O)c32)cc1	inconclusive: 29600 nM [cytotoxic, single point]	
CN1C(=O)CCS(=O)(=O)C1c1ccc(Cl)cc1 (stereo not given)		inactive: 110%
C=CCON=C(C[C@H]1O[C@@H]2O[C@]3(C)CC[C@@H]4[C@H](C)CC[C@@H]([C@H]1C)[C@@]24OO3)[C@H]1O[C@@H]2O[C@]3(C)CC[C@H]4[C@H](C)CC[C@@H]([C@@H]1C)[C@@]24OO3	inconclusive: 166 nM [cytotoxic, full curve, poor fit]	
Cn1c(CCCC(=O)O)nc2cc(N(CCCl)CCCl)ccc21		inactive: 148%
C=C(C)[C@H]1Cc2c(ccc3c2O[C@@H]2COc4cc(OC)c(OC)cc4[C@@H]2C3=O)O1	inconclusive: 332 nM [cytotoxic, full curve]	
CC(=O)O[C@@]12CO[C@H]1C[C@H](O)[C@@]1(C)C(=O)[C@H](O)C3=C(C)[C@@H](O)C[C@@](O)([C@@H](OC(=O)c4ccccc4)[C@@H]21)C3(C)C	inconclusive: 662 nM [cytotoxic, full curve]	
COc1ccc(C(=O)c2c(C)n(CCN3CCOCC3)c3cc(I)ccc23)cc1	active: 20900 nM	
CN(C)[C@@H]1C(=O)C(C(N)=O)=C(O)[C@@]2(O)C(=O)C3=C(O)c4c(O)cccc4[C@@](C)(O)[C@H]3[C@H](O)[C@@H]12		inactive: 107%
Cc1nc(-c2ccc(-c3ccc(C(=O)N4CCc5cc6c(cc54)C4(CCN(C)CC4)CO6)cc3)c(C)c2)no1	inconclusive: 6620 nM [cytotoxic, full curve, poor fit]	
CN1CCN(C(=O)O[C@H]2c3nccnc3C(=O)N2c2ccc(Cl)cn2)CC1		inactive: 117%
CNC(=O)c1ccc(N2C(=S)N(c3ccc(C#N)c(C(F)(F)F)c3)C(=O)C23CCC3)cc1F	inconclusive: 33200 nM [cytotoxic, single point]	
COc1cc(OC)c(OC)cc1C=O		inactive: 96.6%
